According to PubChem BioAssay AID720504 (National Center for Advancing Translational Sciences (NCATS), 2013):
Where “and” joins values, the source holds several entries; their conditions need not be identical. Equal entries are not always repeated. Among all 360,000 compounds or so, about 10,000 (2.8%) were called active. The inconclusive results got no clear call from the source; some entries with a clear call stand among them for comparison. The call rests on the fitted dose curve; in most records, active means well fitted inhibition curve with a large enough effect; inconclusive means small, poorly fitted or top-dose-only effect; inactive means flat fitted curve, though single readings scatter. Potencies of inconclusive entries are doubtful fits and often do not repeat.

Sequences of proteins named here, by UniProt entry; tags and fusion partners are left off.
UniProt P53350, whole entry, looked up: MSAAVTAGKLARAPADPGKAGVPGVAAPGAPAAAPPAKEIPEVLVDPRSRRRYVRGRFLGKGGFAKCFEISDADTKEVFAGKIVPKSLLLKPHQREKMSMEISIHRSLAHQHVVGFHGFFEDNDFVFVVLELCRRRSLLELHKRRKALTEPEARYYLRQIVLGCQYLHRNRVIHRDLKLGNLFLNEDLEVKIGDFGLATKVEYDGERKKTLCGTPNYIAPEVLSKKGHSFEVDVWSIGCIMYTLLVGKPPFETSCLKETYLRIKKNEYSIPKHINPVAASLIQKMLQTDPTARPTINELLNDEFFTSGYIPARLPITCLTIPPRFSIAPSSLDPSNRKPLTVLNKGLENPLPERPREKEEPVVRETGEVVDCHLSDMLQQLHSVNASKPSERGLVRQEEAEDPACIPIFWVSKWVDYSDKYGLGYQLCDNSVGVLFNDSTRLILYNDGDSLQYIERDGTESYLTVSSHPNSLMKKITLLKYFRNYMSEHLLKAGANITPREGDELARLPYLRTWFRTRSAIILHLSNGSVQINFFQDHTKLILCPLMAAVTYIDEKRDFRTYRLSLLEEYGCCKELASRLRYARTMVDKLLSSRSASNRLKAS

Each compound was assayed against Serine/threonine-protein kinase PLK1 (Homo sapiens) (UniProt P53350) (assay: qHTS for Inhibitors of PLK1-PDB (polo-like kinase 1 - polo-box domain): Primary Screen). Conditions: Plk1 PBD binding of FITC phosphopeptide, fluorescence polarization.
Further: nearly all actives have a fitted effect of over 65% in size.
On the % scale 0 is the no-effect control and ±100 the full control effect; potency means the concentration at half of the fitted maximal effect.
Wherever max response, negative = inhibition is given: series mostly up to about 57 µM.

| SMILES | Potency | max response, negative = inhibition |
| --- | --- | --- |
| C[C@H]1CN([C@@H](C)CO)C(=O)CCCn2nncc2CO[C@@H]1CN(C)C(=O)Nc1ccc2c(c1)OCO2 | active: 5.32 µM |  |
| CC(C(=O)Nc1ccc(C(=O)O)c(O)c1)N1C(=O)/C(=C\c2ccco2)SC1=S (configuration not stated) | active: 9.47 µM |  |
| CC(C)CCNc1nc(-c2ccco2)c2c(c1C#N)CCCC2 | inconclusive: 16.8 µM [inhibitor, partial curve] |  |
| CN1CC=C2C(C#N)=C(N)C(C#N)(C#N)C(CCc3ccccc3)C2C1 (configuration not stated) | inconclusive: 18.9 µM [inhibitor, partial curve] |  |
| Cc1cc(C)n2nc(C(=O)NCc3ccccc3)cc2n1 | active: 21.2 µM |  |
| COc1ccc(OC)c(NC(=O)CSc2nc3ccccc3c(=O)n2CC2CCCO2)c1 (configuration not stated) | inconclusive: 26.7 µM [inhibitor, single point] |  |
| CCCNS(=O)(=O)c1ccc(CCC(=O)NCCc2ccc(OC)c(OC)c2)cc1 | inconclusive: 26.7 µM [inhibitor, single point] |  |
| CCOC(=O)c1c(NC(=O)C(=O)N/N=C/c2ccc(O)c(OC)c2)sc2c1CCCCC2 |  | inactive: -2.13% |
| COCCCn1c(=N)c(C(=O)NCC2CCCO2)cc2c(=O)n3ccccc3nc21 (configuration not stated) |  | inactive: -10.1% |
| CN(C)S(=O)(=O)c1cccc(NC(=S)Nc2ccc3cn[nH]c3c2)c1 | active: 21.2 µM |  |
| CN(/C=C1/C(=O)CNC1=O)CCO | active: 16.8 µM |  |
| C/C(=N\Nc1ccc(Cl)c(C(=O)O)c1)c1cccc2ccccc12 | active: 26.7 µM |  |
| CC(C)COc1ccc(C(=O)Nc2ccc([N+](=O)[O-])cc2)cc1 | inconclusive: 23.8 µM [inhibitor, partial curve] |  |
| Cc1cc(O)ccc1NC(=S)NC(=O)c1cncc(Br)c1 | inconclusive: 21.2 µM [inhibitor, single point] |  |
| Cc1occc1C(=O)n1nnc2ccccc21 | inconclusive: 21.2 µM [inhibitor, partial curve] |  |
| CCCCNC(=O)CS(=O)Cc1nc(-c2cccs2)oc1C (configuration not stated) | inconclusive: 26.7 µM [inhibitor, partial curve] |  |
| CN1/C(=C\C(=O)c2cccnc2)C(C)(C)c2ccccc21 |  | inactive: 3.47% |
| OCCCn1c(C2CCCN2c2nc(-c3ccc(Cl)cc3)cs2)nc2cc(C(F)(F)F)ccc21 (configuration not stated) | inconclusive: 29.9 µM [inhibitor, single point] |  |
| CC1C2C(C)N(C)C(=O)N(C)C2N(C)C(=O)N1C (configuration not stated) | inconclusive: 21.2 µM [inhibitor, partial curve] |  |
| CCCCCCc1cc2cc(C(=O)NC)c(=N)oc2cc1O | active: 3.36 µM |  |
| O=S(=O)(Nc1nc2ccccc2s1)c1ccc(Cl)s1 | inconclusive: 15 µM [inhibitor, partial curve] |  |
| COc1ccccc1S(=O)Cc1ccc(C(=O)NCc2ccccc2Cl)o1 (configuration not stated) | active: 26.7 µM |  |
| COc1ccc(/C=N/n2cnn(Cc3ccccc3Cl)c2=S)cc1OC | active: 23.8 µM |  |
| O=C1CC(SCc2nc3ccccc3[nH]2)C(=O)N1c1cccc(Cl)c1 (configuration not stated) |  | inactive: -18.1% |

| SMILES | Potency | max response, negative = inhibition |
| --- | --- | --- |
| CC(C)Oc1ccc(NC(=O)Oc2ccccc2)cc1 | inconclusive: 26.7 µM [inhibitor, partial curve] |  |
| COC(=O)c1ccc(OC(=O)N2CCOCC2)cc1 |  | inactive: -0.713% |
| CCCN(CCC)CCCNC(=O)c1cc2c(=O)[nH]c3ccccc3c2n1C |  | inactive: -6.76% |
| CCCCN(C(=O)c1cc2c(s1)CCC2)c1c(N)n(CCCC)c(=O)[nH]c1=O |  | inactive: -16.7% |
| Cc1ccc(C(=O)C2=C(O)C(=O)N(Cc3cccnc3)C2c2cccc([N+](=O)[O-])c2)o1 (configuration not stated) |  | inactive: -13.4% |
| Clc1ccc(-n2nnnc2SCc2c(-c3ccccc3)nc3sccn23)cc1 | inconclusive: 23.8 µM [inhibitor, single point] |  |
| COc1ccccc1NC(=O)CSc1sc2c(O)cc(=O)[nH]c2c1C#N | inconclusive: 33.6 µM [inhibitor, partial curve] |  |
| Cc1cc2c(cc(C(=O)OC(C)C(=O)NCc3ccc(F)cc3)n2C)o1 (configuration not stated) | inconclusive: 21.2 µM [inhibitor, partial curve] |  |
| Cc1ccc(NCCC(=O)c2ccc(Cl)cc2)cc1C |  | inactive: -9.88% |
| COC(=O)c1ccccc1NC(=S)NC(=O)c1ccccc1F | inconclusive: 29.9 µM [inhibitor, partial curve] |  |
| CS(=O)(=O)N1CCc2cc(-c3csc(NCC4CCCO4)n3)ccc21 (configuration not stated) | inconclusive: 26.7 µM [inhibitor, partial curve] |  |
| COC(=O)c1ccc(CSc2nc(N3CCOCC3)c3c(c2C#N)CC(C)(C)OC3)o1 | inconclusive: 23.8 µM [inhibitor, partial curve] |  |
| COc1cccc(NC(=O)CCc2nnc3ccc(N4CCN(c5cccc(OC)c5)CC4)nn23)c1 | active: 5.97 µM |  |
| CC1CC(C)CN(C(=O)CSCC(=O)Nc2nc(-c3cccs3)cs2)C1 (configuration not stated) | inconclusive: 23.8 µM [inhibitor, partial curve] |  |
| CCOC(=O)/C(C#N)=C1\CC2CCC1(C)C2(C)C (configuration not stated) | active: 5.97 µM |  |
| CCN1CCc2c(sc(NC(=S)NC(=O)c3ccc(Cl)cc3)c2C(N)=O)C1 | inconclusive: 29.9 µM [inhibitor, partial curve] |  |
| O=C(NC(=S)NNC(=O)c1ccccc1O)c1cccnc1 | inconclusive: 26.7 µM [inhibitor, single point] |  |
| CCOC(=O)C1=C(C)C(c2ccccc2OC)NC(=O)N1 (configuration not stated) | inconclusive: 33.6 µM [inhibitor, partial curve] |  |
| CC1CCCN(Cc2c(O)ccc3c2O/C(=C\c2ccco2)C3=O)C1 (configuration not stated) | inconclusive: 13.4 µM [inhibitor, partial curve] |  |
| O=S(=O)(O)c1cccc2cccc(Nc3ccccc3)c12 | active: 15 µM |  |
| COc1ccc(NC(=O)CSc2nc3sc4c(c3c(=O)n2-c2ccc(OC)cc2)CCN(C)C4)cc1 |  | inactive: -9.27% |
| Cc1oc(C)c2c(=O)ccc3c(c12)OC(N)=C(C#N)C3c1ccc(F)cc1 (configuration not stated) | inconclusive: 26.7 µM [inhibitor, single point] |  |
| C=CCOc1ccc(CN(C)CC(=O)N(CC(C)C)c2c(N)n(CC(C)C)c(=O)[nH]c2=O)cc1 | inconclusive: 23.8 µM [inhibitor, single point] |  |
| CC1=NN(c2ccccc2)C(=O)C1C(=O)C(=O)Nc1ccc(F)cc1 (configuration not stated) |  | inactive: -1.18% |

A stretch from further up, as a working copy:

| SMILES | Potency | max response, negative = inhibition |
| --- | --- | --- |
| Cc1ccc(NCCC(=O)c2ccc(Cl)cc2)cc1C |  | inactive: -9.88% |
| COC(=O)c1ccccc1NC(=S)NC(=O)c1ccccc1F | inconclusive: 29.9 µM [inhibitor, partial curve] |  |
| CS(=O)(=O)N1CCc2cc(-c3csc(NCC4CCCO4)n3)ccc21 (configuration not stated) | inconclusive: 26.7 µM [inhibitor, partial curve] |  |
| COC(=O)c1ccc(CSc2nc(N3CCOCC3)c3c(c2C#N)CC(C)(C)OC3)o1 | inconclusive: 23.8 µM [inhibitor, partial curve] |  |

Further compounds.

| SMILES | Potency | max response, negative = inhibition |
| --- | --- | --- |
| COCCNC(=S)NNC(=O)CSCc1ccc(Cl)cc1Cl | inconclusive: 29.9 µM [inhibitor, partial curve] |  |
| O=C(Nc1ccc(Br)cc1)c1cccc(N2C(=O)C3C4CCC(C4)C3C2=O)c1 (configuration not stated) | inconclusive: 29.9 µM [inhibitor, partial curve] |  |
| COc1cc(-c2c(NC(=O)c3ccco3)oc3ccccc3c2=O)cc(OC)c1OC |  | inactive: -5.19% |
| CCCC(C)(C)C(=O)N1CCC1(C)C(=O)NS(=O)(=O)c1ccccc1Cl (configuration not stated) |  | inactive: 7.52% |
| C/C(=N\Nc1ccc(Cl)c(Cl)c1)c1ccc(-n2ccnc2)cc1 |  | inactive: -3.18% |
| Cc1ccccc1C(=O)c1cccn1CC(=O)NCc1cccc(Cl)c1 |  | inconclusive: -12.1% [inhibitor] |
| C#CCSc1nnc(CSc2nc3ccccc3s2)n1-c1ccccc1 |  | inactive: -1.58% |
| COc1cc(SC)ccc1C(=O)N1CC(C)OC(C)C1 (configuration not stated) | inconclusive: 18.9 µM [inhibitor, single point] |  |
| C/C=C/C=C\C(=O)Nc1cccc(C2=NOC3(C2)C[C@H](C(N)=O)N(C(=O)CC#N)C3)c1 (some centres not stated) | inconclusive: 29.9 µM [inhibitor, single point] |  |
| CC(C)(C)c1cc(CCC(=O)NNC(=S)NC(=O)c2ccccc2)cc(C(C)(C)C)c1O |  | inconclusive: -30.1% [inhibitor] |
| COc1ccc(/C=N/NC(=S)Nc2ccccc2)cc1COc1ccc(F)cc1F | inconclusive: 23.8 µM [inhibitor, partial curve] |  |
| COc1ccc(NC(=O)CSc2ncnc3[nH]ncc23)cc1 | active: 3.77 µM |  |
| Cc1ccc(C(=O)NCCCNC(=O)c2ccccc2F)cn1 |  | inactive: 0.204% |
| CC1(C)CC(c2nc(-c3ccc(Br)cc3)cs2)CCS1 (configuration not stated) | active: 3.77 µM |  |
| COc1ccc(NC(=O)C2CCN(C(=O)NC3CCCCC3)CC2)c(OC)c1 | inconclusive: 29.9 µM [inhibitor, partial curve] |  |
| O=C(/C(=N/N=C/c1ccc(O)c(O)c1O)c1ccccc1)c1ccccc1 | active: 7.52 µM |  |
| CCN1CCN(c2nc(-c3ccccc3)nc3ccccc23)CC1 | inconclusive: 9.47 µM [inhibitor, partial curve] |  |
| COc1ccc(NC(=O)c2ccccc2)cc1 |  | inactive: -12.3% |
| O=[N+]([O-])c1cccc(-c2nc3ccc([N+](=O)[O-])cc3[nH]2)c1 | active: 9.47 µM |  |
| CCOC(=O)c1cc(C)n(CCc2ccccc2)c1C |  | inactive: -6.41% |
| COc1ccc(C2C(C#N)=C(N)Oc3c2c(C)nn3-c2ccccc2)cc1Cn1nc(C)c([N+](=O)[O-])c1C (configuration not stated) | inconclusive: 4.74 µM [inhibitor, full curve] and inconclusive: 8.44 µM [inhibitor, full curve] |  |
| CC(C)C(=O)N1CCC1(C)C(=O)Nc1ccccc1OC(F)F (configuration not stated) |  | inactive: -4.28% |
| Cc1cc(Nc2ccccc2F)n2ncnc2n1 | inconclusive: 23.8 µM [inhibitor, single point] |  |
| CCCC(NC(=O)C(C)N1CCN(S(=O)(=O)c2ccccc2)CC1)c1ccccc1 (configuration not stated) |  | inactive: 5.47% |
